{"source": "paper doi:10.1101/2025.02.23.639702", "molecular_target": "T1, BtuCD, endogenous in E. coli BW25113 membranes (E. coli (endogenous in BW25113)) (UniProt P06609+P06611)", "T1 sequence 1": "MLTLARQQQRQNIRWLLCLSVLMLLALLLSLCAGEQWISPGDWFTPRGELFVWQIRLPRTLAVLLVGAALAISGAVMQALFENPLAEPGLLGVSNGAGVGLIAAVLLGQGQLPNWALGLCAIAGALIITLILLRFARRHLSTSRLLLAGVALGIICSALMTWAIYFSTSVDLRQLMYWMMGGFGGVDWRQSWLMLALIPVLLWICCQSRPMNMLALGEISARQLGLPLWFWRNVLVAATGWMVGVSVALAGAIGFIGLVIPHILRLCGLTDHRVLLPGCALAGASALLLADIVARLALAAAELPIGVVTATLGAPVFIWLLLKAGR", "T1 sequence 2": "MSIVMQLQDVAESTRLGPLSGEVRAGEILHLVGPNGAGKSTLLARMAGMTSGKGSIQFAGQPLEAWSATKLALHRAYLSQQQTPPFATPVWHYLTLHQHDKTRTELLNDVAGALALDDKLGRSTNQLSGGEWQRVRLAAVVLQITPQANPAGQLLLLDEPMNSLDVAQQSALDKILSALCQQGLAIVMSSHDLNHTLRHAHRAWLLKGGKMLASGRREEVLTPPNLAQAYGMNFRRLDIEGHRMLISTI", "test": "co-sedimentation", "note": "These are yes or no findings as the source states them, for the method shown. Binding seen in cells or lysates may run through a third protein. Some binding calls cover weakened binding; strength is not graded here."}
{"binder": "BtuF, endogenous in E. coli BW25113 (protein, UniProt P37028 23-266) APRVITLSPANTELAFAAGITPVGVSSYSDYPPQAQKIEQVSTWQGMNLERIVALKPDLVIAWRGGNAERQVDQLASLGIKVMWVDATSIEQIANALRQLAPWSPQPDKAEQAAQSLLDQYAQLKAQYADKPKKRVFLQFGINPPFTSGKESIQNQVLEVCGGENIFKDSRVPWPQVSREQVLARSPQAIVITGGPDQIPKIKQYWGEQLKIPVIPLTSDWFERASPRIILAAQQLCNALSQVD", "values": [{"measurement": "binding", "result": "binds"}]}
